# PMC11357397 (Pharmaceuticals, 2024)
# Strings that start with PEPTIDE1 are HELM notation: dots part the residues, brackets hold end groups and non-standard residues.
# Assay: general procedure: Fmoc solid-phase peptide synthesis; H-His-(Trt)-Cl-2-chlorotrityl resin (loading capacity = 0.724 mmol/g); HCTU, DIPEA
# Conditions: whole synthesis, analytical HPLC, scale of the general procedure 0.50 mmol
substance,measurement,value
PEPTIDE1{W.R.H.W.R.H.W.R.H}$$$$V2.0,final HPLC purity,95.741%
